# According to the supplement of paper PMC4604168 (melanoma cell lines):
# The list shows a part of the results. Single values are uncertain, as repeats are few or missing.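 Cells were imaged in 1,536-well plates, and nuclei stained with an antibody against cleaved PARP were counted against all DNA-stained nuclei to give the apoptosis fraction. Screening doses were chosen to leave most cells alive, and resting and induced cleaved-PARP levels differ strongly between cell lines.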
# Assays:
# Experiment in all cases: cleaved PARP positive nuclei fraction relative to DMSO control; melanoma cells; higher = more apoptosis
# Details in all cases: library dose: low library concentration; 72 h
# [1] = test system: MeWo
# [2] = test system: RPMI7951
# [3] = test system: RVH-421
# [4] = test system: SkMel28
# [5] = test system: SkMel30
# [6] = test system: SkMel5
# [7] = test system: UACC257
# [8] = test system: UACC62
# [9] = test system: MZ2-MEL
SMILES,cleaved PARP positive nuclei fraction [1] [%],cleaved PARP positive nuclei fraction [2] [%],cleaved PARP positive nuclei fraction [3] [%],cleaved PARP positive nuclei fraction [4] [%],cleaved PARP positive nuclei fraction [5] [%],cleaved PARP positive nuclei fraction [6] [%],cleaved PARP positive nuclei fraction [7] [%],cleaved PARP positive nuclei fraction [8] [%],cleaved PARP positive nuclei fraction [9] [%]
"O=C(O)C(=O)Nc1sc2c(c1C(=O)O)CCNC2 + CCCCCCCCCCCC1=C(O)C(=O)C=C(O)C1=O [Embelin] (first compound 1.66667 µM, partner dose 1.2 µM)",100,72.1,44.2,79.2,159,99.4,81.9,53.5,–
"O=C(O)C(=O)Nc1sc2c(c1C(=O)O)CCNC2 + COc1cc(N2CCC(N3CCN(C)CC3)CC2)ccc1Nc1ncc(Cl)c(Nc2ccccc2S(=O)(=O)C(C)C)n1 [NVP-TAE684] (first compound 1.66667 µM, partner dose 0.08 µM)",75.9,95.8,113,96.1,18.9,64,95.2,82.6,–
"CN(NC(=O)CC(=O)NN(C)C(=S)c1ccccc1)C(=S)c1ccccc1 + N#Cc1c(O)c2c(-c3ccc(-c4ccccc4O)cc3)csc2[nH]c1=O [A769662] (first compound 0.006 µM, partner dose 2 µM)",46.9,44.6,47,54.6,40.7,92.9,117,124,–
"NCC(=O)Nc1ccc(-n2nc(C(F)(F)F)cc2-c2ccc3c(ccc4ccccc43)c2)cc1 + COc1cc(N2CCC(N3CCN(C)CC3)CC2)ccc1Nc1ncc(Cl)c(Nc2ccccc2S(=O)(=O)C(C)C)n1 [NVP-TAE684] (first compound 1 µM, partner dose 0.08 µM)",238,84.2,117,416,92.5,114,267,104,–
"CN(C)S(=O)(=O)c1ccc2c(c1)/C(=C/c1cc3c([nH]1)CCCC3)C(=O)N2 + CC(C)CCN1c2nc(Nc3cc(F)c(O)c(F)c3)ncc2N(C)C(=O)C1C [BID1870] (first compound 0.4 µM, partner dose 0.2 µM)",62.4,164,63.1,125,32.1,63,41.3,86.3,–
"COc1cc2c(Oc3ccc4[nH]c(C)cc4c3F)ncnc2cc1OCCCN1CCCC1 [cediranib] + c1cc(-c2cnn3cc(-c4ccc(OCCN5CCCCC5)cc4)cnc23)ccn1 [Dorsomorphin] (first compound 0.4 µM, partner dose 0.4 µM)",52.2,39.8,92.1,110,201,152,93.9,83.6,–
"COc1cc2ncnc(Nc3ccc(Oc4ccccc4)cc3)c2cc1OC + O=C1NC(=O)/C(=C/c2ccc(-c3ccc(F)cc3O)o2)S1 [AS252424] (first compound 2 µM, partner dose 1 µM)",97.7,47.5,60.8,81.9,64.6,55.7,160,54.7,–
"Cc1cc([N+](=O)[O-])ccc1NS(=O)(=O)c1cc(Cl)ccc1Cl + CC(C)CCN1c2nc(Nc3cc(F)c(O)c(F)c3)ncc2N(C)C(=O)C1C [BID1870] (first compound 1 µM, partner dose 0.2 µM)",66.6,74.4,61.6,169,11.4,58,156,74.6,–
"O=C1NC(=O)/C(=C/c2ccc(-c3ccc(F)cc3O)o2)S1 + CCCCCCCCCCCC1=C(O)C(=O)C=C(O)C1=O [Embelin] (first compound 1 µM, partner dose 1.2 µM)",105,405,111,195,13.7,27,139,102,–
"COc1ccc(-c2ccc3c(N4CCOCC4)nc(N4C[C@@H](C)O[C@@H](C)C4)nc3n2)cc1CO + Cn1cc(/C=C2\C(=O)Nc3cccnc32)c2ccccc21 [GW441756] (first compound 0.02 µM, partner dose 0.4 µM)",248,243,48.3,153,90.1,34.4,208,47.4,–
"O=C1NC(=O)/C(=C/c2ccc(-c3ccc(F)cc3O)o2)S1 + Cc1cc([N+](=O)[O-])ccc1NS(=O)(=O)c1cc(Cl)ccc1Cl [FH535] (first compound 1 µM, partner dose 1 µM)",117,77.7,58.4,280,45.4,70.3,211,131,–
"O=S(=O)(c1ccccc1)N(CC(F)(F)F)c1ccc(C(O)(C(F)(F)F)C(F)(F)F)cc1 + CCCCCCCCCCCC1=C(O)C(=O)C=C(O)C1=O [Embelin] (first compound 1.4 µM, partner dose 1.2 µM)",132,177,299,138,72.1,72.9,61,103,–
"COc1cc(N2CCC(N3CCN(C)CC3)CC2)ccc1Nc1ncc(Cl)c(Nc2ccccc2S(=O)(=O)C(C)C)n1 + CC(C)CCN1c2nc(Nc3cc(F)c(O)c(F)c3)ncc2N(C)C(=O)C1C [BID1870] (first compound 0.08 µM, partner dose 0.2 µM)",125,108,59.3,178,79.3,100,201,122,–
"O=C(Nc1ccccc1)c1cc([N+](=O)[O-])ccc1Cl + O=S(=O)(c1ccccc1)N(CC(F)(F)F)c1ccc(C(O)(C(F)(F)F)C(F)(F)F)cc1 [T0901317] (first compound 2 µM, partner dose 1.4 µM)",185,75.1,85.2,200,117,36.1,68.1,44.7,–
"COc1ccc2c(c1)CCC1C2CCC2(C)C(NCCCCCCN3C(=O)C=CC3=O)CCC12 (centres undefined) + CCN(CC)CCCCNc1ncc2cc(-c3cc(OC)cc(OC)c3)c(NC(=O)NC(C)(C)C)nc2n1 [PD173074] (first compound 0.4 µM, partner dose 0.1 µM)",111,116,106,272,77.5,118,44.4,45.9,–
"COc1ccc2c(c1)CCC1C2CCC2(C)C(NCCCCCCN3C(=O)C=CC3=O)CCC12 (centres undefined) + COc1cc(N2CCC(N3CCN(C)CC3)CC2)ccc1Nc1ncc(Cl)c(Nc2ccccc2S(=O)(=O)C(C)C)n1 [NVP-TAE684] (first compound 0.4 µM, partner dose 0.08 µM)",168,109,67.7,88.7,112,59,124,195,–
"COC(=O)c1sccc1S(=O)(=O)Nc1ccc(Nc2ccccc2)cc1OC + COc1ccc(-c2ccc3c(N4CCOCC4)nc(N4C[C@@H](C)O[C@@H](C)C4)nc3n2)cc1CO [KU0063794] (first compound 1 µM, partner dose 0.02 µM)",159,88.3,114,164,27.5,29.5,140,116,–
"N#Cc1c(O)c2c(-c3ccc(-c4ccccc4O)cc3)csc2[nH]c1=O + COC(=O)c1sccc1S(=O)(=O)Nc1ccc(Nc2ccccc2)cc1OC [GSK0660] (first compound 2 µM, partner dose 1 µM)",110,162,51.7,71.6,135,28.6,79.8,246,–

# 2 records drawn at random from the list so far:
SMILES,cleaved PARP positive nuclei fraction [1] [%],cleaved PARP positive nuclei fraction [2] [%],cleaved PARP positive nuclei fraction [3] [%],cleaved PARP positive nuclei fraction [4] [%],cleaved PARP positive nuclei fraction [5] [%],cleaved PARP positive nuclei fraction [6] [%],cleaved PARP positive nuclei fraction [7] [%],cleaved PARP positive nuclei fraction [8] [%],cleaved PARP positive nuclei fraction [9] [%]
"Cc1cc([N+](=O)[O-])ccc1NS(=O)(=O)c1cc(Cl)ccc1Cl + CC(C)CCN1c2nc(Nc3cc(F)c(O)c(F)c3)ncc2N(C)C(=O)C1C [BID1870] (first compound 1 µM, partner dose 0.2 µM)",66.6,74.4,61.6,169,11.4,58,156,74.6,–
"O=C1NC(=O)/C(=C/c2ccc(-c3ccc(F)cc3O)o2)S1 + CCCCCCCCCCCC1=C(O)C(=O)C=C(O)C1=O [Embelin] (first compound 1 µM, partner dose 1.2 µM)",105,405,111,195,13.7,27,139,102,–

# Additional results

SMILES,cleaved PARP positive nuclei fraction [1] [%],cleaved PARP positive nuclei fraction [2] [%],cleaved PARP positive nuclei fraction [3] [%],cleaved PARP positive nuclei fraction [4] [%],cleaved PARP positive nuclei fraction [5] [%],cleaved PARP positive nuclei fraction [6] [%],cleaved PARP positive nuclei fraction [7] [%],cleaved PARP positive nuclei fraction [8] [%],cleaved PARP positive nuclei fraction [9] [%]
"O=C(O)C(=O)Nc1sc2c(c1C(=O)O)CCNC2 + c1cc(-c2cnn3cc(-c4ccc(OCCN5CCCCC5)cc4)cnc23)ccn1 [Dorsomorphin] (first compound 1.66667 µM, partner dose 0.4 µM)",49.2,128,27.7,90.1,43.8,121,111,49.2,–
"COC(=O)c1sccc1S(=O)(=O)Nc1ccc(Nc2ccccc2)cc1OC + Oc1cc(-c2nc(-c3ccccc3)[nH]c2-c2ccncc2)ccc1Cl [L779450] (first compound 1 µM, partner dose 0.2 µM)",116,81.9,73.6,116,59.4,39.2,129,452,–
"CCc1ccc(CCOc2ccc(CC3SC(=O)NC3=O)cc2)nc1 (centres undefined) [pioglitazone] + O=C(O)C(=O)Nc1sc2c(c1C(=O)O)CCNC2 [TCS401] (first compound 2 µM, partner dose 1.66667 µM)",123,41.2,47.2,136,86.2,55.4,83.7,76.3,–
"NCC(=O)Nc1ccc(-n2nc(C(F)(F)F)cc2-c2ccc3c(ccc4ccccc43)c2)cc1 + O=c1cc(-c2cccc3c2Sc2ccccc2S3)oc(N2CCOCC2)c1 [KU55933] (first compound 1 µM, partner dose 1 µM)",166,37.1,41.9,88.1,78.4,155,84.1,188,–
"COC(=O)c1sccc1S(=O)(=O)Nc1ccc(Nc2ccccc2)cc1OC + O=C(O)C(=O)Nc1sc2c(c1C(=O)O)CCNC2 [TCS401] (first compound 1 µM, partner dose 1.66667 µM)",156,82.7,47,276,53.5,218,233,74.2,–
"COc1ccc(COc2ccc(Cc3cnc(N)nc3N)cc2OC)cc1 + CC(C)CCN1c2nc(Nc3cc(F)c(O)c(F)c3)ncc2N(C)C(=O)C1C [BID1870] (first compound 1 µM, partner dose 0.2 µM)",46,71.5,20.4,88.1,92.2,38.2,76.9,48.4,–
"N#Cc1c(O)c2c(-c3ccc(-c4ccccc4O)cc3)csc2[nH]c1=O + O=S(=O)(c1ccccc1)N(CC(F)(F)F)c1ccc(C(O)(C(F)(F)F)C(F)(F)F)cc1 [T0901317] (first compound 2 µM, partner dose 1.4 µM)",117,172,125,85.4,28.2,141,214,132,–
"CCN(CC)CCCCNc1ncc2cc(-c3cc(OC)cc(OC)c3)c(NC(=O)NC(C)(C)C)nc2n1 + Cn1cc(/C=C2\C(=O)Nc3cccnc32)c2ccccc21 [GW441756] (first compound 0.1 µM, partner dose 0.4 µM)",99.4,87.5,73.5,167,31,268,31.3,57.2,–
"CCN(CC)CCCCNc1ncc2cc(-c3cc(OC)cc(OC)c3)c(NC(=O)NC(C)(C)C)nc2n1 + COc1cc(N2CCC(N3CCN(C)CC3)CC2)ccc1Nc1ncc(Cl)c(Nc2ccccc2S(=O)(=O)C(C)C)n1 [NVP-TAE684] (first compound 0.1 µM, partner dose 0.08 µM)",333,165,107,42,18.4,94.5,77.6,162,–
"CCCCCCCCCCCC1=C(O)C(=O)C=C(O)C1=O [Embelin] + O=c1cc(-c2cccc3c2Sc2ccccc2S3)oc(N2CCOCC2)c1 [KU55933] (first compound 1.2 µM, partner dose 1 µM)",114,97.2,261,81.2,27.3,35.2,210,139,–
"COc1cc2ncnc(Nc3ccc(Oc4ccccc4)cc3)c2cc1OC + CC(C)CCN1c2nc(Nc3cc(F)c(O)c(F)c3)ncc2N(C)C(=O)C1C [BID1870] (first compound 2 µM, partner dose 0.2 µM)",104,85.2,21.8,126,46.3,113,90,41.7,–
"COc1ccc(-c2ccc3c(N4CCOCC4)nc(N4C[C@@H](C)O[C@@H](C)C4)nc3n2)cc1CO + Cc1cc([N+](=O)[O-])ccc1NS(=O)(=O)c1cc(Cl)ccc1Cl [FH535] (first compound 0.02 µM, partner dose 1 µM)",38.5,79.8,112,201,48.3,89.1,190,332,–
"O=C(Nc1ccccc1)c1cc([N+](=O)[O-])ccc1Cl + COc1ccc(-c2ccc3c(N4CCOCC4)nc(N4C[C@@H](C)O[C@@H](C)C4)nc3n2)cc1CO [KU0063794] (first compound 2 µM, partner dose 0.02 µM)",124,78.7,59.5,98.9,283,66,32,123,–
"CN(NC(=O)CC(=O)NN(C)C(=S)c1ccccc1)C(=S)c1ccccc1 + c1cc(-c2cnn3cc(-c4ccc(OCCN5CCCCC5)cc4)cnc23)ccn1 [Dorsomorphin] (first compound 0.006 µM, partner dose 0.4 µM)",72.5,95.6,83.9,134,108,95.8,255,85,–
"COc1cc2c(Oc3ccc4[nH]c(C)cc4c3F)ncnc2cc1OCCCN1CCCC1 [cediranib] + O=c1cc(-c2cccc3c2Sc2ccccc2S3)oc(N2CCOCC2)c1 [KU55933] (first compound 0.4 µM, partner dose 1 µM)",54,77.6,67.5,83.2,170,27.7,15.8,73.1,–
"CCN(CC)CCCCNc1ncc2cc(-c3cc(OC)cc(OC)c3)c(NC(=O)NC(C)(C)C)nc2n1 + Oc1cc(-c2nc(-c3ccccc3)[nH]c2-c2ccncc2)ccc1Cl [L779450] (first compound 0.1 µM, partner dose 0.2 µM)",128,194,62.7,91.4,253,28.1,91.1,165,–
"Oc1nc(-c2ccc(C(F)(F)F)cc2)nc2c1CSCC2 + c1cc(-c2cnn3cc(-c4ccc(OCCN5CCCCC5)cc4)cnc23)ccn1 [Dorsomorphin] (first compound 2 µM, partner dose 0.4 µM)",100,85.2,170,156,28.2,411,139,196,57
"c1cc(-c2cnn3cc(-c4ccc(OCCN5CCCCC5)cc4)cnc23)ccn1 [Dorsomorphin] + CCCCCCCCCCCC1=C(O)C(=O)C=C(O)C1=O [Embelin] (first compound 0.4 µM, partner dose 1.2 µM)",104,153,101,77.1,16.1,25.9,86.2,76.3,–
